Test results: paper PMC2860243
These are yes or no findings as the source states them, for the method shown. Binding seen in cells or lysates may run through a third protein. Here binding means that the protein was enriched with, or labelled near, the bait; the list need not be complete. For some of these results: Where a sequence is shown, tags or fusion partners need not be part of it. Blank lines part the entries; values can stand above or below the binder they belong to.

Chains of the proteins cited; added tags and fusions are not shown.
UniProt P20263: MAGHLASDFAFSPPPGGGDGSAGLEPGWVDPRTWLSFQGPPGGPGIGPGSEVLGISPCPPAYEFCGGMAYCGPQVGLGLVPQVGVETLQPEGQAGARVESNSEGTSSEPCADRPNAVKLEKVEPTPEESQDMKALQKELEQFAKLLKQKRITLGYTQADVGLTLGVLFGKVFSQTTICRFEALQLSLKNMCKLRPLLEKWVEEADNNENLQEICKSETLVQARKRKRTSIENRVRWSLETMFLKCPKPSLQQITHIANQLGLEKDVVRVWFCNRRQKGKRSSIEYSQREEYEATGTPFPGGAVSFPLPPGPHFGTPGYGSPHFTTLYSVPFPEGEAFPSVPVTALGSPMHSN
UniProt Q8BX22: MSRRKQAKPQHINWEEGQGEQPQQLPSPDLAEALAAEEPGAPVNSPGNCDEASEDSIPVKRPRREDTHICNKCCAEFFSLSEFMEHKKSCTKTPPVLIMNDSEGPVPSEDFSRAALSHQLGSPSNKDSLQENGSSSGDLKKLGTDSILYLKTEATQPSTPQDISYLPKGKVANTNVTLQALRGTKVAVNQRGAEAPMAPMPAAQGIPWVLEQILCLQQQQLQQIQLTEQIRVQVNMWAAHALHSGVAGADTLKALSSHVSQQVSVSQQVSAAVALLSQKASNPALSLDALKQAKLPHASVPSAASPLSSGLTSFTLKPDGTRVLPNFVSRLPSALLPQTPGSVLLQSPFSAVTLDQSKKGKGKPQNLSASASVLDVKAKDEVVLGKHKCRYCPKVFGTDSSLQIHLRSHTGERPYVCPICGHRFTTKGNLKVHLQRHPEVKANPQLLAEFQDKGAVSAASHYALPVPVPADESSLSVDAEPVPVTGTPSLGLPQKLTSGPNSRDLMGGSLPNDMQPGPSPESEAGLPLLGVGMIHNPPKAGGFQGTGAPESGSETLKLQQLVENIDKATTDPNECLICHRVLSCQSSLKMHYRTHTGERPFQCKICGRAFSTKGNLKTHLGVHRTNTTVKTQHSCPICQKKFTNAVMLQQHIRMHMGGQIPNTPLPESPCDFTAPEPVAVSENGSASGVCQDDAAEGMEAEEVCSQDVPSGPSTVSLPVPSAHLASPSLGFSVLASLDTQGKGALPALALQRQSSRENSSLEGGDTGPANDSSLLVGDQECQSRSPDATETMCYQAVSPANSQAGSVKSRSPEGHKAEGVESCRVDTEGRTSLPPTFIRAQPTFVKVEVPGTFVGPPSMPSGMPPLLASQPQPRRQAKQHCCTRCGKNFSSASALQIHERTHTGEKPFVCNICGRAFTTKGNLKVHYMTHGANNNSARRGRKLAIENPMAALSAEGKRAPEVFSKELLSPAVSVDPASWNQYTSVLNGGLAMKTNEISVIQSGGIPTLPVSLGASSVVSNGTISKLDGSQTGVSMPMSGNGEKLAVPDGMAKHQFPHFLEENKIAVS

Key:
[1] = molecular target: Oct4 (Pou5f1) (mouse (endogenous in 46C ESCs)) (UniProt P20263); test: affinity purification with mass spectrometry; immunoprecipitation of endogenous Oct4 (antibody sc-8628 cross-linked to protein G Sepharose) from 1 ml 46C ESC nuclear extract, Benzonase, washes with C-100*, 4°C, boiled in SDS-loading dye; control goat IgG
[2] = molecular target: FLAG-Oct4 (F-Oct4) (mouse) (UniProt P20263); test: affinity purification with mass spectrometry; FLAG-affinity purification of F-Oct4 from 1.5 ml ESC nuclear extract on anti-FLAG M2 agarose, buffer C-100 (20 mM HEPES pH 7.6, 100 mM KCl), washes with 0.02% NP-40, Benzonase, 4°C, FLAG peptide elution; three purifications; control ZHBTc4 extract
[3] = molecular target: T1, FLAG-tagged Tcfcp2l1 (F-Tcfcp2l1) (mouse) (UniProt Q3UNW5); test: affinity purification with mass spectrometry; FLAG-affinity purification of F-Sall4, F-Dax1, F-Tcfcp2l1 or F-Esrrb from nuclear extract of ZHBTc4-derived ESC clones, buffer C-100, Benzonase, FLAG peptide elution; two purifications each without and with doxycycline (16 hr, Oct4 removed); hits present in both -Dox purifications
T1 sequence: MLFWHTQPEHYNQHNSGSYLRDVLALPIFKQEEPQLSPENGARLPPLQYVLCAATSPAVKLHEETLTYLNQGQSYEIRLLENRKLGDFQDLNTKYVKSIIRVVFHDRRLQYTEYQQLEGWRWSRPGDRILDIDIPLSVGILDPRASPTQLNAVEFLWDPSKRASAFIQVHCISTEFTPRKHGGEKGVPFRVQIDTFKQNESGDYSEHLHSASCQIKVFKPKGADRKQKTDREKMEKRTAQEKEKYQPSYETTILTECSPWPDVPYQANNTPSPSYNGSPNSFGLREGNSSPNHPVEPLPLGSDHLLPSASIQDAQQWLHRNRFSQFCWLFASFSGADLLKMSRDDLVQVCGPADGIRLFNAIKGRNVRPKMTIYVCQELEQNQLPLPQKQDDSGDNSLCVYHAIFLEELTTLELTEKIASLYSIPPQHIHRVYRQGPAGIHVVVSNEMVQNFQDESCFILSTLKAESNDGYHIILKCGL

[4] = molecular target: FLAG-tagged Sall4 (F-Sall4) (mouse) (UniProt Q8BX22); test: as above

B1: Hells (protein, UniProt Q60848 1-821)
chain: MAEQTEPAVITPAMLEEEEQLEAAGLEKERKMLEEAQKSWDRESTEIRYRRLQHLLEKSNIYSKFLLTKMEQQQLEEQKKKEKLEKKKRSLKLTEGKSLVDGNGEKPVMKKKRGREDESYNISEVMSKEEILSVAKKHKDNEDESSSTTSLCVEDIQKNKDSNSMIKDRLSQTVRQNSKFFFDPVRKCNGQPVPFQQPKHFTGGVMRWYQVEGMEWLRMLWENGINGILADEMGLGKTVQCIATIALMIQRGVPGPFLVCGPLSTLPNWMAEFKRFTPEIPTLLYHGTREDRRKLVKNIHKRQGTLQIHPVVVTSFEIAMRDQNALQHCYWKYLIVDEGHRIKNMKCRLIRELKRFNADNKLLLTGTPLQNNLSELWSLLNFLLPDVFDDLKSFESWFDITSLSETAEDIIAKEREQNVLHMLHQILTPFLLRRLKSDVALEVPPKREVVVYAPLCNKQEIFYTAIVNRTIANMFGSCEKETVELSPTGRPKRRSRKSINYSELDQFPSELEKLISQIQPEVNRERTVVEGNIPIESEVNLKLRNIMMLLRKCCNHPYMIEYPIDPVTQEFKIDEELVTNSGKFLILDRMLPELKKRGHKVLVFSQMTSMLDILMDYCHLRNFIFSRLDGSMSYSEREKNIYSFNTDPDVFLFLVSTRAGGLGINLTAADTVIIYDSDWNPQSDLQAQDRCHRIGQTKPVVVYRLVTANTIDQKIVERAAAKRKLEKLIIHKNHFKGGQSGLSQSKNFLDAKELMELLKSRDYEREVKGSREKVISDEDLELLLDRSDLIDQMKASRPIKGKTGIFKILENSEDSSAECLF
binding [1]: binds
binding [2]: binds
binding [3]: binds

B2: Emsy (protein, UniProt Q8BMB0 1-1264)
chain: MPVVWPTLLDLSRDECKRILRKLELEAYAGVISALRAQGDLTKEKKDLLGELSKVLSISTERHRAEVRRAVNDERLTTIAHKMNLSLYLGERPSYSMSGPNSSSEWSIEGRRLVPLMPRLVPQTAFTVTANAVANAAVQHNASLPVPAETASKDGVSCSDEDEKPRKRRRTNSSSSSPVVLKEVPKAVVPVSKTITVPVSGSPKMSNIMQSIANSLPPHMSPVKITFTKPSTQTTNTTTQKVIIVTTSPSSTFVPNILSKSHNYAAVTKLVPTSVIASTTQKPPVVITASQASLVTSSSNGNSSSTSSPISSTVAVTTVVSSTPSVVMSTVAQGVSTSAIKVASTRLPSPKSLVSGPTQILAQFPKQHQQSPKQQLQQVQQQTQQPVAQPSSVSQQQQPQQSALPPGIKPTIQIKQESGVKIITQQVQPSKILPKPVTATLPTSSNSPIMVVSSNGAIMTTKLVTTPTGTQATYTRPTVSPSLGRVATTPGAATYVKTTSGSIITVVPKSLATLGGKIISSNIVSGTTTKITTIPMTSKPNVIVVQKTTGKGTTIQGLPGKNVVTTLLNAGGEKTLQTVPAGAKPAIITATRPITKMIVTQPKGIGSAVQPAAKIIPTKIVYGQQGKTQVLIKPKPVTFQATVVSEQTRQLVTETLQQASRVADASNSSAQEGKEEPQGYTDSSSSSTESSQSSQDSQPVVHVIASRRQDWSEHEIAMETSPTIIYQDVSSESQSATSTIKALLELQQTTVKEKLESKPRQPTIDLSQMAVPIQMTQEKRHSPESPSIAVVESELVAEYITTVSHRSQPQQPSQPQRTLLQHVAQSQTATQTSVVVKSIPASSPGAITHIMQQALSSHTAFTKHSEELGTEEGEVEEMDTLDPQTGLFYRSALTQSQSTKQQKLSQPQLEQTQLQVKTLQCFQTKQKQTIHLQADQLQHKLTQMPQLSIRHQKLNPLQQEQAQPKPDAQHTQHTVVAKDRQLPTLMAQPPQTVVQVLAVKTTQQLPKLQQAPNQPKIYVQPQTPQSQMALPSSEKQPASQVEQPIITQGSSVTKITFEGRQPPTVTKITGGSSVPKLTSPVTSISPIQASEKTAVSDILQMSLMEAQIDTNVEHMVVDPPKKALATNVLTGEAGALPSTHVVVAGMTKCRESCSSPSAVGPPLTTRKIEAAGVPTTGQFMRIQNVGQKKAEESPTEIIIQAIPQYAIPCHSSSNVVVEPSGLLELNNFTSQQLDDDETAMEQDIDSSTEDGTEPSPSQSAVERS
binding [2]: binds
binding [3]: binds

Continued, values first:

binding [4]: binds
B3: Sall2 (protein, UniProt Q9QX96 1-1004)
chain: MSRRKQRRPQQLISDCEGPSASENGDASEEDHPQVCAKCCAQFSDPTEFLAHQNSCCTDPPVMVIIGGQENPSNSSASSAPRPEGHSRSQVMDTEHSNPPDSGSSGAPDPTWGPERRGEESSGQFLVAATGTAAGGGGGLILASPKLGATPLPPESTPAPPPPPPPPPPPGVGSGHLNIPLILEELRVLQQRQIHQMQMTEQICRQVLLLGSLGQTVGAPASPSELPGTGAASSTKPLLPLFSPIKPAQTGKTLASSSSSSSSSGAEPPKQAFFHLYHPLGSQHPFSVGGVGRSHKPTPAPSPALPGSTDQLIASPHLAFPGTTGLLAAQCLGAARGLEAAASPGLLKPKNGSGELGYGEVISSLEKPGGRHKCRFCAKVFGSDSALQIHLRSHTGERPYKCNVCGNRFTTRGNLKVHFHRHREKYPHVQMNPHPVPEHLDYVITSSGLPYGMSVPPEKAEEEAGTPGGGVERKPLVASTTALSATESLTLLSTGTSTAVAPGLPTFNKFVLMKAVEPKSKADENTPPGSEGSAIAGVADSGSATRMQLSKLVTSLPSWALLTNHLKSTGSFPFPYVLEPLGASPSETSKLQQLVEKIDRQGAVAVASTASGAPTTSAPAPSSSASGPNQCVICLRVLSCPRALRLHYGQHGGERPFKCKVCGRAFSTRGNLRAHFVGHKTSPAARAQNSCPICQKKFTNAVTLQQHVRMHLGGQIPNGGSALSEGGGAAQENSSEQSTASGPGSFPQPQSQQPSPEEEMSEEEEEDEEEEEDVTDEDSLAGRGSESGGEKAISVRGDSEEVSGAEEEVATSVAAPTTVKEMDSNEKAPQHTLPPPPPPPDNLDHPQPMEQGTSDVSGAMEEEAKLEGTSSPMAALTQEGEGTSTPLVEELNLPEAMKKDPGESSGRKACEVCGQSFPTQTALEEHQKTHPKDGPLFTCVFCRQGFLDRATLKKHMLLAHHQVPPFAPHGPQNIATLSLVPGCSSSIPSPGLSPFPRKDDPTMP

binding [1]: binds
binding [2]: binds
binding [3]: binds
B4: Ubp1 (protein, UniProt Q811S7 1-540)
chain: MAWVLSMDEVIESGLVHDFDSSLSGIGQELGAGAYSMSDVLALPIFKQEDSSLSLEDEAKHPPFQYVMCAATSPAVKLHDETLTYLNQGQSYEIRMLDNRKMGDMPELSGKLVKSIIRVVFHDRRLQYTEHQQLEGWKWNRPGDRLLDLDIPMSVGIIDTRTNPSQLNAVEFLWDPAKRTSAFIQVHCISTEFTPRKHGGEKGVPFRIQVDTFKQNENGEYTDHLHSASCQIKVFKPKGADRKQKNDREKMEKRTAHEKEKYQPSYDTTILTEMRLEPIIEDAVEHEQKKSSKRTLPADYGDSLAKRGSCSPWPDTPTAYVNNSPSPAPTFTSSQPSTCSVPDSNSSSPNHQGDGAAQASGEQIQPSATTQETQQWLLKNRFSSYTRLFSNFSGADLLKLTKEDLVQICGAADGIRLYNSLKSRSVRPRLTIYVCQEQPSSTALQGQPQAAGSGGESGGGTPSVYHAIYLEEMVASEVARKLASVFNIPFHQINQVYRQGPTGIHILVSDQMVQNFQDETCFLFSTVKAENNDGIHIILK

binding [4]: binds
B5: Sall3 (protein, UniProt Q62255 1-1320)
chain: MSRRKQAKPQHLKSDEELPPQDGASEHGVPGDGAEDADSGSESRSGSEETSVCEKCCAEFFKWADFLQHKKTCTKNPLVLIVHDDEPAPPSEDFPEPSPASSPSDRTESEVAEEVAPTEGSEVKAATKEAEPMDVEVSTDKGPPGPSVPPPPPALPPQPEPAAFSMPSTNVTLETLLSTKVAVAQFSQGARAGGTTGAGGSVGAVAIPMILEQLVALQQQQIHQLQLIEQIRSQVALMSRQPGPPLKPSASAPGTASVQLQGLTPHAALQLSAGPATASAGSGSTLPAAFDGPQHLSQPASGTSTPCSTSAAPPDSGAHPACSTGPAPGAVAAASSTVGNAVQPQNASTPPALGPGPLLSSASNLPNPLLPQTSSSSVIFPNPLVSIAATANALDPLSALMKHRKGKPPNVSVFEPKASAEDPFFKHKCRFCAKVFGSDSALQIHLRSHTGERPFKCNICGNRFSTKGNLKVHFQRHKEKYPHIQMNPYPVPEYLDNVPTCSGIPYGMSLPPEKPVTTWLDSKPVLPTVPTSVGLQLPPTVPGTHNYTDSPSITPVSRSPQRPSPASSECTSLSPGLNNTESGITVRPESPQPLLGGPSLTKAEPVSLPCTSTRTGDAPVVGGQVSGLPTSAATAVTDSACTSLGSPGLPAVSDQFKAQFPFGGLLDSMQTSETSKLQQLVENIDKKMTDPNQCVICHRVLSCQSALKMHYRTHTGERPFKCKICGRAFTTKGNLKTHFGVHRAKPPLRVQHSCPICQKKFTNAVVLQQHIRMHMGGQIPNTPLPEGLQEAMDADLPFDEKNAETLSSFDDDIDENSMEEDSELKDTASDSSKPLLSYSGSCPPSPPSVISSIAALENQMKMIDSVMNCQQLANLKSVENGSGESDRLSNDSSSAVGDLESRSAGSPALSESSSSQALSPAHSNGESFRSKSPGLGHQEDPQEIPLKTERLDSPPPGPGNGGALDLTAGHPGRPLIKEEAPFSLLFLSRERGKCASTVCGVCGKPFACKSALEIHYRSHTKERRFVCTVCRRGCSTMGNLKQHLLTHKLKELPSQVFDPNFTLGPSHSTPSLASSPAPTMIKMEVNGHSKAIALGEGPALPAGVQVPTGPQTVMSPGLAPMLAPPPRRTPKQHNCQSCGKTFSSASALQIHERTHTGEKPFGCTICGRAFTTKGNLKVHMGTHMWNNAPARRGRRLSVENPMALLGGDALKFSEMFQKDLAARAMNVDPSFWNQYAAAITNGLAMKNNEISVIQNGGIPQLPVSLGGGAIPPLGAMASGVDKARTGSSPPIVSLDKASSETGASRPFARFIEDNKEIGIN
